Data from patent publication US20130323249A1.
These are yes or no findings as the source states them, for the method shown. Some results given as binding are weak or reduced against the parent protein; the word gives no strength.

Chains of the proteins cited; added tags and fusions are not shown. Residues count along the entry.
UniProt Q9NZQ7, residues 19-290: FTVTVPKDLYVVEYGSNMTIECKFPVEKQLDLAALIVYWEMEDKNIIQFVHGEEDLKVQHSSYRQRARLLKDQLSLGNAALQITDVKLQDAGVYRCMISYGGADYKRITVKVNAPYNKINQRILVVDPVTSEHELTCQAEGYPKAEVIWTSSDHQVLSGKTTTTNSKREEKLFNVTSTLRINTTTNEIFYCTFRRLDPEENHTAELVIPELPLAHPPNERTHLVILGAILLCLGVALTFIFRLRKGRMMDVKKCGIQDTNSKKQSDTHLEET

Biological target: human PD-L1 expressed on the surface of cells (human) (UniProt Q9NZQ7)
Test: flow cytometry on activated human lymphocytes (FIG. 1 legend)

binding: binds
B1: H10 anti-PD-L1 antibody (antibody, V domains shown)
VH: EVQLVQSGGGLVQPGGSLRLSCAASGFTFSSYSMNWVRQAPGKGLEWVSYISSSSSTIYYADSVKGRFTISRDNAKNSLYLQMNSLRDEDTAVYYCARGDYYYGMDVWGQGTTVTVSS
VL: EIVLTQSPSSLSASIGDRVTLTCRASQSIRRFLNWYQQKPGKAPELLIYTASSLQSGVPSRFSGSGSGTDFTLTINSLQPEDFATYYCQQSYAVSPYTFGQGTKVEIR
